Laboratory results from article doi:10.1101/2020.03.12.989277.
No constants are given. Whether binding was seen depends on the method and setting. Binding seen in cells or lysates may run through a third protein. These calls come from enrichment with a bait or labelling near it, and not all partners need be listed. Sequences can lack the tags named with a protein.

Molecular target: T1, LGR5-BirA fusion (LGR5 with the bacterial biotin-ligase BirA at its C-terminus) (UniProt O75473)
T1 sequence: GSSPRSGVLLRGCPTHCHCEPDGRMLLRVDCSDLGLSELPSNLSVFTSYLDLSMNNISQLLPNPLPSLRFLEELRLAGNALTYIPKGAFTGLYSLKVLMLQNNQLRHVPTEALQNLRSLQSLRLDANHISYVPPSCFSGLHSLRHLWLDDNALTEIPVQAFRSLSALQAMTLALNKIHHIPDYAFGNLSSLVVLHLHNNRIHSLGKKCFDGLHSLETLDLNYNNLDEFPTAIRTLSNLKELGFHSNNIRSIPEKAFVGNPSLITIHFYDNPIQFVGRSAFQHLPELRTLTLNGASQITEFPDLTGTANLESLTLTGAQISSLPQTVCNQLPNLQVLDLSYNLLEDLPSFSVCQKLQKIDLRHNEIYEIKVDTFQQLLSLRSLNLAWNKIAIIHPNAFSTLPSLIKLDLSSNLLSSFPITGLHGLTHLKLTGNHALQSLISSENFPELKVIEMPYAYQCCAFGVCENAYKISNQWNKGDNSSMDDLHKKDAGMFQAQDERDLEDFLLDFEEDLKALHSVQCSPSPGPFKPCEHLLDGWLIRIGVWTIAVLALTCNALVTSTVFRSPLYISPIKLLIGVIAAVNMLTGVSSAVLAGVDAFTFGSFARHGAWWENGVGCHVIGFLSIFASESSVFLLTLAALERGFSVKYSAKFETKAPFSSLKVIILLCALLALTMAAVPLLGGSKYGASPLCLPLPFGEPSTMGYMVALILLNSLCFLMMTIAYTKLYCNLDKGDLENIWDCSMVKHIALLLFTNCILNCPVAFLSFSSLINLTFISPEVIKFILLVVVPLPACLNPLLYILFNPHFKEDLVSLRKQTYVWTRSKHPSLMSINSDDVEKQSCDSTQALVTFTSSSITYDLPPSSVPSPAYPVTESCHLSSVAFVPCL
Assay: proximity labelling

Q: With “PKA-adapter Akap8 (from UniProt O43823 1-692)” as the substance, how does the binding read?
A: binds

Q: With “Dishevelled2 (DVL2) (from UniProt O14641 1-736)” as the substance, how does the binding read?
A: binds

Q: Which binding does the source give for “β-arrestin (ARRB2) (from UniProt P32121 1-409)” here?
A: binds

Q: For “G-protein-coupled receptor kinase 2 (GRK2) (from UniProt P25098 1-689) (enzyme)”, which binding is on record?
A: binds

Q: Which binding does the source give for AAK1 (from UniProt Q2M2I8 1-961) here?
A: binds

Q: With “PKA-adapter Akap12 (from UniProt Q02952 1-1782)” as the substance, how does the binding read?
A: binds
